Laboratory results taken from patent US7468186B2, “Polyomavirus cellular epitopes and uses therefor” (priority 2005, dated 2008).
“And” between values parts separate entries of the source, which are not always exact repeats. Equal values may be shown once. At least one peptide structure holds a part that was inferred or is arguable (an end, a ring closure or a residue). Ends that are not written are not given here.

Columns and labels:
[1] = tested on: Jurkat A2.1 cells pulsed with peptide
[2] = tested on: CD8+ T lymphocytes of PBMC; assay: In vitro stimulation of human PBMC with peptide and rIL-2, then tetramer reagent labeling and flow analysis
[3] = tested on: cytotoxic T lymphocytes; assay: In vivo immunogenicity of peptides in HHD-II transgenic mice (peptide + CpG DNA, PADRE, incomplete Freund's adjuvant); cytotoxicity and ICC read-out; conditions: 14 days after immunization, with CpG DNA, FIGS. 2 and 3
[4] = tested on: splenocytes (CD8+ T cells); type: cell-based, HHD-II transgenic mice
[5] = kidney transplant patient KTx#02 PBMC, two weeks with peptide and IL-2, percentage of CD8+ lymphocytes, FIG. 12

LLMWEAVTV [BK108]
recognition by transgenic murine CTL expanded with BK108 [1]: recognized | BOTH (tetBKVp108 and tetJCVp100) ([2]; IVS with BKVp108, double tetramer labeling): 0.02 and 0 and 0.3 | % tetJCVp100 ([2]; IVS with BKVp108, healthy HLA-A2 donors): 0.02% and 0.01% and 0.06% (3×) and 0% (10×) and 0.03% and 0.04% (2×) and 0.46% and 0.1% | % tetBKVp108 ([2]; IVS with BKVp108, healthy HLA-A2 donors, one donor per row (ND#01-ND#30)): 2.54% and 0.04% (4×) and 0.25% and 3.49% and 0.09% (3×) and 0.08% and 0.06% (4×) and 0% (8×) and 0.07% and 0.12% and 0.1% and 0.67% and 0.3% and 0.15% and 0.26% | individuals positive for staining with the BK108 tetramer reagent after in vitro stimulation ([2]; healthy HLA-A2 volunteers, summary of Table IV): 4 of 30 | tetramer reagent binding cells that bound both the BKV and JVC tetramer reagents ([2]; kidney transplant patient KTx#02 PBMC after in vitro stimulation, FIG. 13): 84% | cells binding the BKV tetramer reagent after in vitro stimulation [2, 5]: 30.3% | cells binding the JVC tetramer reagent after in vitro stimulation [2, 5]: 20.1% | CTL response of immunized mice [3]: responded by producing cytotoxic T lymphocytes that specifically recognize this BKV VP1 epitope | cells producing IFN-γ in response to peptide [4]: 31.01% and 38.4% | proportion of cells responding with IFN-γ production [4]: 3.89%
